Among the data in article PMC4072751 are binding values, retold here.

Assay [1] deals with T1, GST-NQO2 (full length wild type NQO2) (human) (UniProt P16083).
T1 sequence: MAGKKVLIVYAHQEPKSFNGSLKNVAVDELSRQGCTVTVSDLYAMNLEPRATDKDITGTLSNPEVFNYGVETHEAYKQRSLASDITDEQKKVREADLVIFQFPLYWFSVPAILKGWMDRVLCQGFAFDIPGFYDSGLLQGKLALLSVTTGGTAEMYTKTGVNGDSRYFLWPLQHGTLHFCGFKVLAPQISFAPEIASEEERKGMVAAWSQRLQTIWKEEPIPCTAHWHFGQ
Nature of the assay: pull-down; GST-NQO2 fusion proteins (up to 2.5 ug) with His-tagged AKT proteins (up to 2.5 ug), 50 mM Tris-HCl pH 7.8, 1 mM EDTA, 150 mM NaCl, 1% Nonidet P-40, 4°C, glutathione-Sepharose beads; blots with anti-His, anti-AKT or anti-NQO2; GST-NQO2 pre-incubated with or without 1 mM resveratrol; both purified.

The target in assay [2] is T2, human NQO2 recombinant protein (wild type) (human) (UniProt P16083).
T2 sequence: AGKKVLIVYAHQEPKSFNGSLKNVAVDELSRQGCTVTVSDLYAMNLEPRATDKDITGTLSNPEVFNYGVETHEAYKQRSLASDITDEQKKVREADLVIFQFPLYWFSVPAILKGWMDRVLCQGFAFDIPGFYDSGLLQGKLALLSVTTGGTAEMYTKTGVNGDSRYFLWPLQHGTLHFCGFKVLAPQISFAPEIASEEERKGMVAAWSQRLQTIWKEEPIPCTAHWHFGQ
Nature of the assay: co-IP; recombinant NQO2 and AKT mixed (constant 2.5 ug of one, 0, 1.0 and 2.5 ug of the other), antibody overnight at 4°C in 50 mM Tris-HCl pH 8.0, 100 mM KCl, 0.1% NP-40, 2 mM EDTA; protein A/G-Sepharose; Western blot; reciprocal (anti-NQO2 or anti-AKT); both purified.

Assay [3] deals with human AKT recombinant protein (human). Described as above.

No constants are given. Whether binding was seen depends on the method and setting. Binding can be weak; no strength is given. For some assays here: Sequences can lack the tags named with a protein. For some assays here: Binding seen in cells or lysates may run through a third protein.

As to “full length His-tag AKT (human) (enzyme)”, the binding result in assay [1] is given as “binds”.
“His-AKT-dPH (AKT with deletion of PH domain) (human) (domain or fragment)”: the binding entry in assay [1] was “binds weakly”.
On the same count and under the same terms, in the case of “His-AKT-PH (AKT containing the PH domain) (human) (domain or fragment)” it was “binds”.
human AKT recombinant protein (enzyme): the binding result in assay [2] is given as “binds”.

B1: human NQO2 recombinant protein (wild type) (enzyme, UniProt P16083 2-231)
chain: AGKKVLIVYAHQEPKSFNGSLKNVAVDELSRQGCTVTVSDLYAMNLEPRATDKDITGTLSNPEVFNYGVETHEAYKQRSLASDITDEQKKVREADLVIFQFPLYWFSVPAILKGWMDRVLCQGFAFDIPGFYDSGLLQGKLALLSVTTGGTAEMYTKTGVNGDSRYFLWPLQHGTLHFCGFKVLAPQISFAPEIASEEERKGMVAAWSQRLQTIWKEEPIPCTAHWHFGQ
As to B1, the binding entry in assay [3] was “binds”.
